The values below come from US8030489B2, “Ornithine derivative” (Astellas Pharma Inc., priority 2007, dated 2011).

Amino acid sequences for entries named in this document (tags omitted).
UniProt P43114, whole entry: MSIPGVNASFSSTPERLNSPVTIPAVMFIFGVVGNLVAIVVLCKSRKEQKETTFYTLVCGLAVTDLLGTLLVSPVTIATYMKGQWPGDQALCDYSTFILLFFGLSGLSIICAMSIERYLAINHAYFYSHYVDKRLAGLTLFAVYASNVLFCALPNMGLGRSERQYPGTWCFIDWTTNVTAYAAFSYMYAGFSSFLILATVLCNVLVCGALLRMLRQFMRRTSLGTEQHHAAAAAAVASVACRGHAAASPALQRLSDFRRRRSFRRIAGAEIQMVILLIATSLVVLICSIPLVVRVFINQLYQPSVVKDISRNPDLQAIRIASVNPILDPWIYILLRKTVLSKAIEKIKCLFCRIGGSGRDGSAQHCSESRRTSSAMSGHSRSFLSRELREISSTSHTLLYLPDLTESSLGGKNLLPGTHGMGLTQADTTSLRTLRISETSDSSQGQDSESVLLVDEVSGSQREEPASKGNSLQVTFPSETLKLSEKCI

Structures are written as SMILES. Structures were worked out from names or drawings and are uncertain.

In the test the target is rat EP4 receptor (Rattus norvegicus, UniProt P43114). The experiment in a line: Evaluation test on rat EP4 receptor affinity ([3H]PGE2 binding assay). Conditions: rat EP4 expressed in HEK293 membrane fraction, [3H]PGE2 0.3 nM. Here is the method:
Test Example 1: Evaluation Test on Rat EP4 Receptor Affinity
Cell Culture and Transfection
Using a 10 cm collagen-coated dish (Asahi Glass), HEK293 cells were cultured in a D-MEM culture medium, washed with a phosphate buffer saline (PBS), the culture medium was removed off at a confluence (90 to 100% density state), and then the cells were detached with N,N,N′,N′-tetrakis(carboxymethyl)ethylenediamine (EDTA). The cells were counted and seeded on a 15 cm collagen-coated dish to a confluence of 70%. The next day, to an Opti-MEM culture medium at 1.2 mL/dish was added Lipofectamine 2000 (Invitrogen) at 60 μL/dish, followed by being left to stand at room temperature for 5 minutes. A plasmid in which a rat EP4 (alignment number 1) had been inserted into a TA cloning site of pcDNA3.1-V5-His-topo was added thereto to 15 μg/dish. […]
[^3H] […] The UniFilter-96 GF/B after filtration was dried in a dryer overnight, 50 μL/well of MicroScint20 (Perkin Elmer) was added thereto, and then the radioactivity was measured using a TopCount (Perkin Elmer). […] All of the measurements were carried out in duplicate, and the specific binding amount was determined by subtracting the non-specific binding amount from the total binding amount.
According to Test Example 1 as above, the rat EP4 receptor affinity (Ki) of the compound of the formula (I) was measured.

`Cn1c(C(=O)N[C@@H](CCCNC(=O)OCc2ccccc2)C(=O)N[C@H]2CCC[C@@H]2OCC(=O)O)cc2ccccc21` registered a Ki of 4.6 nM. Consider `Cn1c(C(=O)N[C@@H](CCCNC(=O)OCc2ccccc2)C(=O)N[C@H]2CCC[C@H]2c2noc(=O)[nH]2)cc2ccccc21`, for which the Ki came out at 0.82 nM.

The Ki is the dissociation constant of the complex between target and ligand, obtained from inhibition or displacement. A high value points to lower affinity.
